This is an account of results in publication PMC11609211.

The target of the experiment is T1, Flag-tagged NDP52/CALCOCO2 (UniProt Q13137).
T1 sequence: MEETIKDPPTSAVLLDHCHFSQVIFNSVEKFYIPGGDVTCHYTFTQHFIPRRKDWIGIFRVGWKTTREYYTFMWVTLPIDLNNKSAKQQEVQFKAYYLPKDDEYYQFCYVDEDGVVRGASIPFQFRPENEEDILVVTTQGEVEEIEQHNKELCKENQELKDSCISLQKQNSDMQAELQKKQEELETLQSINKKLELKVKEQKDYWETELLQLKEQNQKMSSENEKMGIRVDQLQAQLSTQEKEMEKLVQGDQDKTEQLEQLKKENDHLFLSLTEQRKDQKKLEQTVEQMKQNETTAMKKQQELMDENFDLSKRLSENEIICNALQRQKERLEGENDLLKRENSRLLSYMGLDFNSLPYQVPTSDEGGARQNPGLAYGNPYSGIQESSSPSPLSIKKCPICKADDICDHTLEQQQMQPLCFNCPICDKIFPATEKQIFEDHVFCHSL
The experiment can be described thus: co-IP; HEK-293T cells co-transfected with the tagged plasmids; whole-cell lysate (50 mM Tris-HCl pH 7.4, 150 mM NaCl, 1% NP-40, 10% glycerin, 0.1% SDS, 2 mM Na2EDTA) incubated at 4°C for 4 h with anti-Flag or anti-HA affinity gel; immunoblot. (In western blotting, separated proteins are transferred to a membrane and probed.)

No constants are given. Whether binding was seen depends on the method and setting. Binding seen in cells or lysates may run through a third protein. Binding calls can cover weak binding; strength is not graded here. Sequences can lack the tags named with a protein.

In the case of “HA-tagged PDCoV nucleocapsid (N) protein (porcine deltacoronavirus (PDCoV))”, the binding result was “binds”.
